PubChem BioAssay AID330 (DTP/NCI, 2004)
The list is a part of this screen's results and no random one: it is rich in T/C values a quarter to a half above the control, in often repeated tests (any T/C) and in doses without a T/C. Further doses and runs are listed elsewhere. T/C is the treated group as % of the vehicle group. Some doses have a count of surviving animals in place of a T/C: the source holds a T/C of zero for them, seemingly a mark for toxic or unscored doses. Some doses without a T/C left all or most animals alive at the check, yet need not have been tolerated: the source hardly ever lists a survival T/C far under the control, and the zero likely stands for such cases as well. Counts of survivors are from the toxicity check (mostly the fifth day) where no day follows; animals may have died later. Schedule codes are those of the source, read here as Q, the interval in days (D) or hours (H), X, the number of doses. Some entries were tested several times; the results are listed from low to high. Additions like (4×) say how often a value occurs here. For survival time, the PubChem record calls one and a half times the control and up active, and a quarter to a half above the control has no call in these data; cut-offs in other NCI protocols can differ. Some T/C values are followed by the survivors on the day toxicity was checked, most often the fifth; without a count, all were alive then. Some schedule codes hold Z or #, which are not explained here.

Tested on: P388 leukemia ip, CD2F1 mice, survival T/C
Assay: NCI In Vivo Anticancer Drug Screen. Data for tumor model P388 Leukemia (intraperitoneal) in CD2F1 (CDF1) mice
Details: T/C endpoint: median survival time, higher T/C = longer survival
[1] = dose: 64.0 mg/kg/injection, schedule: Q04DX003 (ip), vehicle: saline

In the case of `COc1cccc2c1C(=O)c1c(O)c3c(c(O)c1C2=O)C[C@@](O)(C(=O)CO)C[C@@H]3OC1CC(N)C(O)C(C)O1` (some centres not stated), the T/C (dose: 16.0 mg/kg/injection, schedule: Q01DX001 (ip), vehicle: saline, evaluated on day 60) is reported as 151 % of control, the T/C (dose: 16.0 mg/kg/injection, schedule: Q04DX003 (ip), vehicle: saline, evaluated on day 5) is reported as 74 and 83 % of control and the T/C (dose: 16.0 mg/kg/injection, schedule: Q04DX003 (ip), vehicle: saline, evaluated on day 30) is reported as 115 (2×), 118 [5 of 6 alive], 127, 130, 131, 138, 140, 153, 163, 165, 172, 179, 180 (2×), 200, 201, 209 % of control. The T/C (dose: 16.0 mg/kg/injection, schedule: Q04DX003 (ip), vehicle: water, evaluated on day 30, list 1 of 2) was 93, 95 [4 of 6 alive], 100, 101 [5 of 6 alive], 108, 110 [5 of 6 alive], 113, 117, 119, 121 (2×), 123, 126, 127, 130, 131, 138, 139, 141, 144, 145, 151, 153, 157, 169, 173, 175, 180, 185, 194, 208, 227, 233 % of control, the T/C (dose: 16.0 mg/kg/injection, schedule: Q04DX003 (ip), vehicle: water, evaluated on day 30, list 2 of 2) was 93, 95, 96, 99, 100, 106, 109, 111, 114, 117, 121 (2×), 122, 124, 126, 129, 130, 133, 139, 140, 144, 145, 149, 151, 155, 161, 169, 174, 177, 185, 193, 200, 215, 228 % of control and the T/C (dose: 16.0 mg/kg/injection, schedule: Q04DX003 (ip), vehicle: water, evaluated on day 35) was 100, 122, 125, 135, 136, 139, 140, 152 (2×), 155 (2×), 163, 219, 267 % of control. The T/C (dose: 16.0 mg/kg/injection, schedule: Q04DX003 (ip), vehicle: water, evaluated on day 40) was 94, 108, 152, 155, 188 % of control, the T/C (dose: 16.0 mg/kg/injection, schedule: Q04DX003 (ip), vehicle: water, evaluated on day 45) was 92 [2 of 3 alive], 97, 99, 107, 108 (2×), 109, 110 (3×), 112, 113, 114 (2×), 116 (2×), 117 [5 of 6 alive], 119 (3×), 120, 120 [5 of 6 alive], 121 (2×), 124, 127 (2×), 128 (2×), 132, 134, 135, 138 (2×), 142, 144, 145, 152, 153, 154, 178, 198, 202, 248, 267 % of control and the T/C (dose: 16.0 mg/kg/injection, schedule: Q04DX003 (ip), vehicle: water, evaluated on day 50) was 111, 117, 121, 152, 166 % of control. The T/C (dose: 16.0 mg/kg/injection, schedule: Q04DX003 (ip), vehicle: water, evaluated on day 60) was 112 and 212 % of control, the survivor count (dose: 16.0 mg/kg/injection, schedule: Q04DX003 (ip), vehicle: water) was 3 of 6, 5 of 6, 6 of 6 (2×), 6 of 6 on day 9 and the T/C (dose: 16.0 mg/kg/injection, schedule: Q## X001 (ip), vehicle: saline) was 93, 96, 138, 183 (2×), 203, 212 % of control. The survivor count (dose: 18.0 mg/kg/injection, schedule: Q04DX003 (ip), vehicle: saline) was 8 of 8, the T/C (dose: 20.0 mg/kg/injection, schedule: Q01DX001 (ip), vehicle: saline, evaluated on day 6) was 75 [4 of 5 alive] and 86 % of control and the T/C (dose: 20.0 mg/kg/injection, schedule: Q01DX001 (ip), vehicle: saline, evaluated on day 7) was 95 % of control [2 of 6 alive]. For the same compound, the T/C (dose: 20.0 mg/kg/injection, schedule: Q01DX001 (ip), vehicle: saline, evaluated on day 11) was 185 % of control, the T/C (dose: 20.0 mg/kg/injection, schedule: Q01DX001 (ip), vehicle: saline, evaluated on day 44) was 323 % of control and the T/C (dose: 20.0 mg/kg/injection, schedule: Q01DX001 (ip), vehicle: saline, evaluated on day 60) was 188, 219 [9 of 10 alive], 504 % of control. The survivor count (dose: 20.0 mg/kg/injection, schedule: Q01DX001 (ip), vehicle: saline) was 6 of 10 and 9 of 10, the T/C (dose: 20.0 mg/kg/injection, schedule: Q01DX001 (ip), vehicle: water, evaluated on day 5) was 202 % of control and the T/C (dose: 20.0 mg/kg/injection, schedule: Q01DX001 (ip), vehicle: water, evaluated on day 45) was 142 and 266 % of control [5 of 6 alive]. For the same compound, the survivor count (dose: 20.0 mg/kg/injection, schedule: Q01DX001 (ip), vehicle: water) was 4 of 6, 5 of 6, 6 of 6, the T/C (dose: 20.0 mg/kg/injection, schedule: Q04DX003 (ip), vehicle: water) was 132 % of control and the T/C (dose: 22.5 mg/kg/injection, schedule: Q01DX001 (ip), vehicle: saline) was 134 % of control [8 of 9 alive]. The T/C (dose: 24.0 mg/kg/injection, schedule: Q04DX003 (ip), vehicle: saline) was 109 [survivors not given], 116, 126 [survivors not given], 127 % of control, the survivor count (dose: 25.0 mg/kg/injection, schedule: Q01DX009 (ip), vehicle: water) was 0 of 6 and the survivor count (dose: 27.0 mg/kg/injection, schedule: Q04DX003 (ip), vehicle: saline) was 6 of 8. For the same compound, the survivor count (dose: 30.0 mg/kg/injection, schedule: Q01DX001 (ip), vehicle: saline) was 6 of 6, the survivor count (dose: 32.0 mg/kg/injection, schedule: Q01DX001 (ip), vehicle: DMSO) was 8 of 10 and the survivor count (dose: 32.0 mg/kg/injection, schedule: Q01DX001 (ip), vehicle: other) was 1 of 10. For the same compound, the T/C (dose: 32.0 mg/kg/injection, schedule: Q01DX001 (ip), vehicle: saline, evaluated on day 3) was 40 % of control [8 of 9 alive], the T/C (dose: 32.0 mg/kg/injection, schedule: Q01DX001 (ip), vehicle: saline, evaluated on day 5) was 85 % of control and the T/C (dose: 32.0 mg/kg/injection, schedule: Q01DX001 (ip), vehicle: saline, evaluated on day 7) was 71 [2 of 2 alive] and 80 % of control [2 of 4 alive]. The T/C (dose: 32.0 mg/kg/injection, schedule: Q01DX001 (ip), vehicle: saline, evaluated on day 30) was 238 % of control [3 of 6 alive], the T/C (dose: 32.0 mg/kg/injection, schedule: Q01DX001 (ip), vehicle: saline, evaluated on day 45) was 207 % of control and the T/C (dose: 32.0 mg/kg/injection, schedule: Q01DX001 (ip), vehicle: saline, evaluated on day 60) was 181 % of control. For the same compound, the survivor count (dose: 32.0 mg/kg/injection, schedule: Q01DX001 (ip), vehicle: saline) was 5 of 10, 8 of 10, 6 of 6, the survivor count (dose: 32.0 mg/kg/injection, schedule: Q01DX001 (iv), vehicle: saline) was 5 of 6 and the T/C (dose: 32.0 mg/kg/injection, schedule: Q04DX003 (ip), vehicle: saline, evaluated on day 5) was 52 and 56 % of control. For the same compound, the T/C (dose: 32.0 mg/kg/injection, schedule: Q04DX003 (ip), vehicle: saline, evaluated on day 30) was 91, 100 [5 of 6 alive], 106, 108 [5 of 6 alive on day 9], 137, 149 % of control, the survivor count (dose: 32.0 mg/kg/injection, schedule: Q04DX003 (ip), vehicle: saline) was 4 of 6 and the survivor count (dose: 40.5 mg/kg/injection, schedule: Q04DX003 (ip), vehicle: saline) was 4 of 8. The survivor count (dose: 55.6 mg/kg/injection, schedule: Q01DX001 (oral), vehicle: saline) was 6 of 10, the survivor count (dose: 64.0 mg/kg/injection, schedule: Q01DX001 (ip), vehicle: DMSO) was 0 of 10 and the survivor count (dose: 64.0 mg/kg/injection, schedule: Q01DX001 (ip), vehicle: other) was 0 of 10. The survivor count (dose: 64.0 mg/kg/injection, schedule: Q01DX001 (ip), vehicle: saline) was 1 of 10 and 2 of 10, the T/C [1] was 87 [2 of 6 alive], 91 [2 of 6 alive], 97 % of control [5 of 6 alive on day 9] and the survivor count [1] was 3 of 6 and 6 of 6. The survivor count (dose: 128.0 mg/kg/injection, schedule: Q01DX001 (ip), vehicle: DMSO) was 0 of 10, the survivor count (dose: 128.0 mg/kg/injection, schedule: Q01DX001 (ip), vehicle: other) was 0 of 10 and the survivor count (dose: 128.0 mg/kg/injection, schedule: Q01DX001 (ip), vehicle: saline) was 0 of 10 (2×). For the same compound, the survivor count (dose: 128.0 mg/kg/injection, schedule: Q04DX003 (ip), vehicle: saline) was 6 of 6.
